# Measured values reported in US12414996B2, “Organic anion transporting peptide-based cancer imaging and therapy” (Da Zen Theranostics, Inc., priority 2014, dated 2025).
# Test system: MCF-7
# Assay: Tumor cell growth inhibition IC50, MCF-7
# Type: cell-based
# Conditions: Breast Cancer cell line MCF-7; read-out: Half maximal inhibitory concentration (IC50) MCF-7
# Source text: In addition to DZ-1-Gem, some agents of the invention may include other antitumor active moieties, such as cisplatin. For example, the tumor cell growth inhibition activities of DZ-1 linked with cisplatin (“DZ-1-cisplatin”) were compared with those of cisplatin alone in various tumor cells, including prostate, breast, renal, kidney, and lung cancer cell lines.
smiles,measurement,value
"N.N.[Cl][Pt][Cl] [Cisplatin, reference compound]",IC50,15 µM
